Source: PubChem BioAssay AID652259 (Drosophila RNAi Screening Center, 2013)

Purpose: 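Identify new Wingless signalling regulators in fly cells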 (primary screen)
System: Drosophila clone 8 imaginal disc epithelial cells
Reagents: long dsRNA against Drosophila genes
Challenge: pathway stimulated by co-transfected Wingless expression plasmid
Measured: 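Dual luciferase reads per well after Wingless plasmid stimulation: reporter firefly light and Renilla control light; activity is firefly divided by Renilla, a ratio not deposited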
Direction: firefly reporter light: higher = more Wg reporter light, before normalisation; Renilla control light: higher = more transfected or surviving cells
Call rule: 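Strong candidates differ from their plate mean by at least two out of four per-plate statistical tests; weak candidates meet just one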
Calls: active = candidate regulator (raises or lowers reporter); inactive = not a candidate
The deposit covers about 22,000 reagents; this is an unselected part of those with a known target gene and a result. In the full data, 233 (1.1%) are marked active. 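Light values are raw, unnormalised plate reads; the ratio scores behind the reporter calls were not deposited.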 A number with no mark means an inactive call. A plus sign joins genes that one reagent is predicted to hit. Not given: the amount of reagent, the time to read-out, the dose of the treatment.

Gene | dsRNA | reporter change call, replicate 1 | firefly reporter light, replicate 1 | firefly reporter light, replicate 2 | Renilla control light, replicate 1 | Renilla control light, replicate 2
dpr19 | DRSC02237 | – | 1923 | 9546 | 784 | 4301
CG32409 | DRSC08780 | – | 4774 | – | 2685 | –
CG6304 | DRSC02948 | – | 8765 | – | 4140 | –
tzn | DRSC11755 | – | 4081 | – | 2167 | –
ave | DRSC05502 | – | 16954 | – | 13794 | –
Prosbeta5R1 | DRSC04581 | – | 1952 | 7506 | 528 | 3408
CG8492 | DRSC10984 | – | 2106 | 11233 | 1331 | 5282
CG8492 | DRSC21804 | – | 5.33e5 | 4.23e5 | 2.99e5 | 1.77e5
Ehbp1 | DRSC06561 | – | 14967 | – | 4307 | –
CG34168 | DRSC01938 | – | 3290 | 7031 | 1575 | 3064
Nup93-2 | DRSC16221 | – | 3440 | – | 1920 | –
CG12307 | DRSC02159 | – | 2970 | 6641 | 630 | 3410
Pbgs | DRSC09718 | – | 5732 | – | 2104 | –
Vps24 | DRSC12332 | – | 10968 | – | 3056 | –
GstE5 | DRSC06675 | – | 9123 | – | 3363 | –
Srr | DRSC16382 | – | 21479 | – | 6198 | –
Gr59c | DRSC04185 | – | 3504 | 6016 | 778 | 2392
E(spl)m4-BFM | DRSC16992 | – | 19586 | – | 14192 | –
Or83c | DRSC12359 | – | 15757 | – | 3221 | –
Spn43Ad | DRSC06770 | – | 1584 | 5373 | 420 | 2465
CG32091 | DRSC10141 | – | 9058 | – | 2304 | –
CG32091 | DRSC10820 | – | 8124 | – | 2885 | –
CG43277 | DRSC05800 | – | 20725 | – | 17812 | –
Caf1-55 | DRSC16596 | – | 6039 | – | 2587 | –
CG17217 | DRSC02592 | – | 3635 | 6838 | 1398 | 3114
mof | DRSC18795 | – | 17168 | – | 3474 | –
CG32161 | DRSC22128 | – | 5.90e5 | 5.86e5 | 2.09e5 | 2.11e5
CG30065 | DRSC05420 | – | 19378 | – | 16125 | –
CG18004 | DRSC06705 | – | 24120 | – | 5572 | –
Tace | DRSC16340 | – | 3897 | 6506 | 1425 | 1307
CG32085 | DRSC10138 | – | 8656 | – | 3046 | –
CG32085 | DRSC10139 | – | 9909 | – | 4005 | –
CG32085 | DRSC10576 | – | 4544 | – | 2528 | –
Ucp4A | DRSC19996 | – | 21933 | 7.91e5 | 11625 | 3.63e5
spo | DRSC11127 | – | 1715 | 4678 | 1296 | 3281
Snx1 | DRSC00531 | – | 1744 | 5525 | 851 | 2198
btv | DRSC01615 | – | 22774 | – | 10040 | –
btv | DRSC02449 | – | 2688 | 8256 | 656 | 4188
sxe2 | DRSC15692 | – | 2295 | 6938 | 640 | 2482
eIF2Bbeta | DRSC18465 | – | 16731 | – | 12693 | –
Zip42C.1 | DRSC05003 | – | 3821 | 6759 | 651 | 1644
Taf4 | DRSC11297 | Wg reporter activity raised (active) | 19981 | – | 864 | –
Mgtor | DRSC05958 | – | 9090 | – | 1756 | –
CG17198 + CG17197 | DRSC15190 | – | 30727 | – | 20041 | –
CG17198 + CG17197 | DRSC15191 | – | 20642 | – | 15092 | –
Ae2 | DRSC08997 | – | 4464 | – | 1116 | –
Ae2 | DRSC10969 | – | 7346 | – | 2387 | –
Nph | DRSC16342 | – | 8877 | – | 3899 | –
MFS3 | DRSC00664 | – | 3904 | 6709 | 1264 | 2544
Snmp1 | DRSC16168 | – | 26027 | – | 3986 | –
CG31792 | DRSC02604 | – | 1713 | 6944 | 352 | 2284
CG2852 | DRSC04321 | – | 2290 | 6710 | 749 | 3160
CG17778 | DRSC18504 | – | 23747 | – | 9940 | –
CR9337 | DRSC03212 | – | 9148 | – | 3053 | –
EMC4 | DRSC11638 | – | 10704 | – | 3394 | –
CG4734 | DRSC06885 | – | 9212 | – | 4178 | –
CG4734 | DRSC22072 | – | 4.58e5 | 4.46e5 | 96125 | 1.00e5
CG14657 | DRSC12219 | – | 12685 | – | 4784 | –
CG14657 | DRSC12243 | – | 3832 | – | 736 | –
Pbp45 | DRSC16509 | – | 23501 | – | 6688 | –
CG5126 | DRSC00680 | – | 10826 | – | 5868 | –
CG13334 | DRSC06369 | – | 7508 | – | 1971 | –
CG8159 | DRSC16392 | – | 16587 | – | 4357 | –
TwdlD | DRSC14738 | – | 6241 | – | 2576 | –
CG30031 + deltaTry + CG30025 + 1 more | DRSC21262 | – | 16005 | – | 6864 | –
GlyT | DRSC04512 | – | 2038 | 4747 | 659 | 1729
Ddrgk1 | DRSC15897 | – | 4614 | 5099 | 1308 | 1939
Vps36 | DRSC09785 | – | 6242 | – | 1971 | –
APC4 | DRSC18360 | – | 3458 | 11365 | 1066 | 3184
CG7557 | DRSC10878 | – | 9978 | – | 3936 | –
CG32813 | DRSC17948 | – | 25258 | – | 21690 | –
CG14401 | DRSC02385 | – | 3757 | 9856 | 1297 | 3961
CG14401 | DRSC21710 | – | 7.70e5 | 7.88e5 | 2.64e5 | 2.88e5

In a second layout: entries from further up
Gene	dsRNA	reporter change call, replicate 1	firefly reporter light, replicate 1	firefly reporter light, replicate 2	Renilla control light, replicate 1	Renilla control light, replicate 2
CG12307	DRSC02159		2970	6641	630	3410
Pbgs	DRSC09718		5732		2104	
Vps24	DRSC12332		10968		3056	
GstE5	DRSC06675		9123		3363	
Srr	DRSC16382		21479		6198	
Gr59c	DRSC04185		3504	6016	778	2392
E(spl)m4-BFM	DRSC16992		19586		14192	
Or83c	DRSC12359		15757		3221	
Spn43Ad	DRSC06770		1584	5373	420	2465
CG32091	DRSC10141		9058		2304	
CG32091	DRSC10820		8124		2885	
